The assay has as its target HIV-1 Nef core domain, residues 41-206 (Nef NL4-3) (HIV-1 (NL4-3)) (UniProt P03406). Put plainly: condition: typically 100 µl of a 150 µg/ml protein solution loaded; SEC; analytical gel filtration, Superdex S75 (10/30), 10 mM Tris/HCl pH 9.0, 100 mM NaCl, 4°C, typically 100 µl of a 150 µg/ml protein solution; Nef core alone; both purified. In general terms: In gel filtration, larger molecules generally elute earlier.

No constants are given. Whether binding was seen depends on the method and setting.

Regarding “HIV-1 Nef core domain, residues 41-206 (Nef NL4-3) (from UniProt P03406 41-206) (domain or fragment)”, the binding result is “no binding”.

Source of the values: paper PMC3390362.
